From US9238632B2, “3-cyanoanilinoalkylarylpiperazine derivative and use thereof in preparing drugs” (NHWA Pharma. Corporation, priority 2012, dated 2016)

Sequences of proteins named here, by UniProt entry; tags and fusion partners are left off.
UniProt P14842, whole entry: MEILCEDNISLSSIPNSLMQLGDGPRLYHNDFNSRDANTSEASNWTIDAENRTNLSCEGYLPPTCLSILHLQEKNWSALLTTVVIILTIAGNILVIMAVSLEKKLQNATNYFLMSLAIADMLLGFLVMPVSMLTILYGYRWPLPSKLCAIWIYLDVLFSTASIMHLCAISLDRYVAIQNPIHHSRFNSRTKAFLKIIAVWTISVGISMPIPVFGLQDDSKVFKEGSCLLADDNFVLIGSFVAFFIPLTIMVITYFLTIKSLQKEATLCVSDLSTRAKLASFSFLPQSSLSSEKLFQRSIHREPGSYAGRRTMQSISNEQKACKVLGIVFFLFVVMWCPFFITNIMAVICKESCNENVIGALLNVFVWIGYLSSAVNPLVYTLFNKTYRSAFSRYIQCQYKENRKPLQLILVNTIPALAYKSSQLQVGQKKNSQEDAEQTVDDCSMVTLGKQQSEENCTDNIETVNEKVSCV

Tests used:
5-HT2A receptor = molecular target: T1, 5-HT2A receptor (Rattus norvegicus, UniProt P14842); test: In vitro competitive binding test to 5-HT2A receptor ([3H]-Ketanserin, rat cerebral cortex membranes); conditions: 10 μmol/L compound; hydrochloride salts; rat cerebral cortex membrane; unit (I %); read-out: 5-HT2A affinity [3H]-Ketanserin (inhibition rate of radioligand binding)
T1 construct: The supernatant is discarded and the precipitate (membrane receptor) is stocked; from tissue; host or cells: SD rat cerebral cortex membranes
Experimental: (§1) Animals: clean grade SD rats, female and male, 250-300 g, purchased from Nanjing QingLongshan animal breeding center.
(§2) Radioligand: [^3H]-8-OH-DPAT, [^3H]-Ketanserin, purchased from PerkinElmer company; 5-HT and Methysergide, purchased from Sigma company.
(§3) Positive drug: aripiprazole.
Preparation of 5-HT2A buffer solution: Tris (6.05 g) is dissolved in ultrapure water (1000 ml). PH is adjusted to 7.4 with HCl. Tris-HCl buffer solution (0.05M) is used.
(§4) Preparation of radioligand: 50 μl mother liquor is diluted to 5 ml with anhydrous ethanol, and stocked for use.
(§5) Preparation of non-labeling ligand: appropriate amounts of 5-HT and Methysergide are dissolved in ultrapure water to give solutions with final concentrations of 2*10^−5M respectively.
(§6) Preparation of solutions of various test drugs: appropriate amount of each drug is first diluted to 1 ml with ultrapure water as stock solution. When needed, 10 μl of the stock solution is diluted to 1 ml to reach a level of 10^−5M.
(§7) Rats are decapitated to get the brains. […]
(§8) Above tubes are put in 37° C. water bath immediately after finishing adding radioligand into each of them and then incubated for 25 min. […] Radioactivity is determined using liquid scintillation counter. […]

5-HT1A receptor = molecular target: T2, 5-HT1A receptor (Rattus norvegicus, UniProt P19327); test: In vitro competitive binding test to 5-HT1A receptor ([3H]-8-OH-DPAT, rat cerebral cortex membranes); conditions: 10 μmol/L compound; hydrochloride salts; rat cerebral cortex membrane; unit (I %); read-out: 5-HT1A affinity [3H]-8-OH-DPAT (inhibition rate of radioligand binding)
T2 construct: The supernatant is discarded and the precipitate (membrane receptor) is stocked; from tissue; host or cells: SD rat cerebral cortex membranes
T2 sequence (P19327 1-422): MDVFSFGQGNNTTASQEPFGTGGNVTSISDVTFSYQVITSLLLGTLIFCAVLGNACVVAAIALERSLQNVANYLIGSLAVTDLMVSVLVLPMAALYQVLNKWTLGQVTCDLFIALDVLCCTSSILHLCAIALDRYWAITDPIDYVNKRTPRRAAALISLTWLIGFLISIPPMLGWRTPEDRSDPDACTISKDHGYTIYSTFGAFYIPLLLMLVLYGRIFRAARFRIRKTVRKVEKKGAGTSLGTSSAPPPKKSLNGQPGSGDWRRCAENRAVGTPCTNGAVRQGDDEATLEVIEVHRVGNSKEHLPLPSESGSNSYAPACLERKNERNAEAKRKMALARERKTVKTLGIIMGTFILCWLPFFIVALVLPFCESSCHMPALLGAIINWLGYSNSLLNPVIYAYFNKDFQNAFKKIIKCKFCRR
Experimental: as §1, §2, §3
Preparation of 5-HT1A buffer solution: Tris-HCl buffer solution (0.05M, 1000 ml) is added with certain amount of ascorbic acid, pargyline and CaCl2, to give final concentrations of 0.1%(ascorbic acid), 10 um (pargyline) and 4 mM (CaCl2) separately.
as §4, §5, §6, §7, §8

Q: For `O=C1CCc2ccc(OCCCCN3CCN(c4cccc(Cl)c4Cl)CC3)cc2N1` [aripiprazole, reference compound], which inhibition at 10 µM (5-HT2A receptor) is on record?
A: The inhibition at 10 µM was 126%.

Q: What about the inhibition at 10 µM (5-HT1A receptor) of the same compound?
A: The inhibition at 10 µM was 118%.
